Laboratory results published in patent US20260168983A1, “YaxAB NANOPORE, NANOPORE SYSTEM COMPRISING SAME AND APPLICATIONS THEREOF” (KOREA RESEARCH INSTITUTE OF BIOSCIENCE AND BIOTECHNOLOGY, priority 2022, published 2026).

Chains of the proteins cited; added tags and fusions are not shown. Residues count along the entry.
UniProt P02787, 20-698: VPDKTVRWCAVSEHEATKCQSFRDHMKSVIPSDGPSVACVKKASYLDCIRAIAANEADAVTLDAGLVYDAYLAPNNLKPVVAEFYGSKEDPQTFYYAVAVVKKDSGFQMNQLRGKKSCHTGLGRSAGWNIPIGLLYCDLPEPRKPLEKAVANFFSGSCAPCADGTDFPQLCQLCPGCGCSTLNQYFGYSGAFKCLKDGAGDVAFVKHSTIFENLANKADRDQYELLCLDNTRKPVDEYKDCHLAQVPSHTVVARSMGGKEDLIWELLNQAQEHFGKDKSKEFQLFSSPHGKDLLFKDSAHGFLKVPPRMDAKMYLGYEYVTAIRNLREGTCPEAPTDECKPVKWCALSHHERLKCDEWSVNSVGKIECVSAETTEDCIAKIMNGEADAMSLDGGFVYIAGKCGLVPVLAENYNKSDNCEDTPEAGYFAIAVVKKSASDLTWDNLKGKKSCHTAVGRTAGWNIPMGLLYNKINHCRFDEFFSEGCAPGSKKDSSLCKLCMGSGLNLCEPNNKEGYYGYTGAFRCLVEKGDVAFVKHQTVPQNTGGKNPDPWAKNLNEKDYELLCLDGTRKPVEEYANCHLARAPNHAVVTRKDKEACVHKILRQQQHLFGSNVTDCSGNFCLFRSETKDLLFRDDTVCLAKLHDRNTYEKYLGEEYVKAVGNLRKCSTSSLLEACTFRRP

Biological target: holo-transferrin protein (Homo sapiens, UniProt P02787)

Structure (SMILES): O=C1[O][Pt]2([NH][C@@H]3CCCC[C@H]3[NH]2)[O]C1=O [oxaliplatin]
- current blockade pattern of holo-transferrin with ligand versus protein alone: a distinct change in the current blockade pattern was observed
